Taken from: PubChem BioAssay AID1259254 (NCATS, 2017)

Assay: 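Gene knock-downs that lead to re-replication, shown by excess G2 DNA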 (primary screen)
System: human HCT116 colorectal cancer cells
Knock-down reagent: single siRNA against human genes
Duration: 3 days
Measured: 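Nuclei stained with Hoechst and imaged; cell-cycle phase assigned by DNA content; G2 share scaled per plate, non-targeting siRNA 0%, GMNN siRNA 100%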
Direction: G2 robust z-score: higher = more G2 cells, more excess DNA replication
Hit rule: 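An siRNA counts as active if its G2 robust z-score lies at least 5 MADs above the screen median; here such calls match roughly 38% of GMNN control or more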
In all, the deposit lists about 59,000 reagents; shown is a random part of them. About 1,550 of them (2.6%) were called active. 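G2 share is only a proxy for re-replication; each gene was hit by three separate siRNAs, and active genes were retested.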 Unmarked entries are inactive. The numbers tell different reagents against one gene apart. Not all columns of the deposit are shown. The record does not give: the amount of reagent.

G2 robust z-score, by target and reagent
TMEM198B (GeneID 440104): #1 1.4; #2 -0.68; #3 9.48 (active)
KCNC3 (GeneID 3748): #1 -0.717; #2 -0.671; #3 -1.02
ZAN (GeneID 7455): #1 3.67; #2 2.13; #3 -0.976
PPP1R27 (GeneID 116729): #1 1.06; #2 -0.664; #3 -1.05
FOXK1 (GeneID 221937): #1 -0.289; #2 1.17; #3 0.351
MRPL1 (GeneID 65008): #1 0.144; #2 -0.385; #3 0.213
TSR3 (GeneID 115939): #1 -0.92; #2 -0.474; #3 3.51
CYP17A1 (GeneID 1586): #1 0.876; #2 -0.176; #3 1.03
FOXL1 (GeneID 2300): #1 -1.71; #2 3.96; #3 -0.454
VKORC1L1 (GeneID 154807): #1 -0.588; #2 -0.639; #3 -0.584
OR10S1 (GeneID 219873): #1 -0.5; #2 -0.859; #3 2.83
BACH2 (GeneID 60468): #1 1.59; #2 -0.41; #3 1.28
PGC (GeneID 5225): #1 1.56; #2 0.332; #3 -1.1
WNT2 (GeneID 7472): #1 1.14; #2 0.625; #3 0.29
SSBP4 (GeneID 170463): #1 2.48; #2 0.178; #3 3.11
P3H2 (GeneID 55214): #1 8.13 (active); #2 -1.02; #3 -0.277
RPS10P9 (GeneID 730187): #1 -0.402; #2 -0.575; #3 2
CASP8AP2 (GeneID 9994): #1 -0.787; #2 0.0255; #3 -1.2
BCLAF3 (GeneID 256643): #1 -0.112; #2 0.348; #3 0.247
IKZF5 (GeneID 64376): #1 0.00712; #2 -0.514; #3 2.09
ZDHHC7 (GeneID 55625): #1 4.57; #2 0.794; #3 0.155
PLXND1 (GeneID 23129): #1 -0.0539; #2 -0.728; #3 -1.02
LOXHD1 (GeneID 125336): #1 -0.405; #2 -0.431; #3 0.822

Entries listed above marked active, once more:
G2 robust z-score, by target and reagent
TMEM198B (GeneID 440104): #3 9.48 (active)
P3H2 (GeneID 55214): #1 8.13 (active)
